Record: PubChem BioAssay AID504793 (Drosophila RNAi Screening Center, 2011)
The deposit covers about 23,000 reagents; below is a random part of those with a known target gene and a result. Of all reagents, 62 (0.27%) are marked active. 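Calls come from follow-up tests whose scores are not deposited, so confirmed genes may have low counts here; counts are not normalised per plate.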 Raw values are not corrected between plates. Unmarked entries are inactive. Reagents against one gene are numbered here. Names joined by + are all predicted targets of the reagent.

- Test: 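Knock-downs allowing continued mitosis even though DNA is damaged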 (primary screen)
- Cells: Drosophila S2R+ cells
- Reagent: long dsRNA against Drosophila genes, about 0.25 µg dsRNA per well
- Timing: 4 days of dsRNA, then 4 hours of drug before read-out
- Conditions: doxorubicin 0.5 µM for 4 hours to cause double-strand breaks, in cells also given a low, harmless dose of dsRNA against nbs to sensitise the assay
- Detection: 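Mitotic index as the number of phospho-histone H3-positive cells in each well following doxorubicin, given as raw counts without normalisation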
- Scale: mitotic cells: higher = more cells in mitosis, weaker G2 arrest
- Active means: 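a call needs confirmation in secondary tests, with other dsRNAs and a check of mitotic timing without damage, not just a high primary count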
- Calls: active = confirmed in follow-up tests; inactive = not confirmed

Against Sry-alpha #1, the entry reads mitotic cells, replicate 1 = 22; mitotic cells, replicate 2 = 8.
For Sry-alpha #2, the entry reads mitotic cells, replicate 1 = 6.
For Or33c the deposit lists mitotic cells, replicate 1 = 6.
For CCHa1, the values are mitotic cells, replicate 1 = 2.
For mbm, the entry reads mitotic cells, replicate 1 = 4.
With knock-down of CG18301, the screen gave mitotic cells, replicate 1 = 6.
OtopLa #1 gave mitotic cells, replicate 1 = 7.
After knock-down of OtopLa #2, the screen gave mitotic cells, replicate 1 = 6.
OtopLa #3 gave mitotic cells, replicate 1 = 8.
SPE #1 scored mitotic cells, replicate 1 = 11.
SPE #2 scored mitotic cells, replicate 1 = 7.
DIP-alpha #1 showed mitotic cells, replicate 1 = 7.
With knock-down of DIP-alpha #2, the record shows mitotic cells, replicate 1 = 2.
Silencing of Cubn #1 came out at: mitotic cells, replicate 1 = 12.
Against Cubn #2 the deposit lists mitotic cells, replicate 1 = 4.
Knock-down of Prosbeta1 came out at: mitotic cells, replicate 1 = 6.
After knock-down of Octbeta2R #1 the results were mitotic cells, replicate 1 = 2.
Knock-down of Octbeta2R #2 gave: mitotic cells, replicate 1 = 5.
Depletion of Octbeta2R #3 gave: mitotic cells, replicate 1 = 14.
With knock-down of Octbeta2R #4, the screen gave mitotic cells, replicate 1 = 7.
Depletion of CG43736 + CG33692 (retired record) #1 gave: mitotic cells, replicate 1 = 15.
With knock-down of CG43736 + CG33692 (retired record) #2, the record shows mitotic cells, replicate 1 = 17.
After knock-down of CG43736 + CG33692 (retired record) #3, the screen gave mitotic cells, replicate 1 = 3.
